The structures given here were assigned with low confidence; some may be wrong.
Tests used:
[1] = tested on: Pfeiffer cells; assay: Proliferation inhibition of Pfeiffer tumor cells, Cell Titer-Glo; conditions: read-out: CTG IC50, 144 hours incubation
Description: In this experiment, Cell Titer-Glo reagent was used to quantitatively analyze the proliferation activity of Pfeiffer cells to detect the inhibitory ability of the compounds on tumor cell proliferation. The specific steps were as follows: • 1. Pfeiffer cells were purchased from Nanjing Cobioer (purchased from ATCC, Catalog No. #CRL2632), subcultured and maintained in logarithmic growth state using RPMI-1640 complete medium (containing 10% v/v fetal bovine serum) according to the supplier's recommended conditions. […] Before cell seeding, cells were collected in a centrifuge tube, centrifuged at 250 rcf for 3 minutes, and the culture medium was discarded. The cells were resuspended in fresh complete medium, and 20 µL of the cell suspension was taken to calculate the cell concentration using a Countstar cell counter. After adjusting the density, cells were seeded into a 384-well plate at 2,000 cells/45 µL and pre-incubated in a 37°C, 5% CO2 incubator for 4 hours. • 3. The negative and positive control groups were treated with 5 µL of control solution (non-complete medium containing 1% v/v DMSO). Compound gradient dilutions were prepared using non-complete medium, and 5 µL of the dilutions were added to the corresponding culture wells. The final concentration of DMSO in the test was 0.1% v/v. Subsequently, the plate was incubated in a 37°C, 5% CO2 incubator for 144 hours. • 4. 40 µL of Cell Titer-Glo reagent was added directly to the cell culture, and the plate was incubated at room temperature in the dark for 30 minutes. The luminescence value was then read on a plate reader, and the results were used to analyze the cell proliferation ratio and compound activity. • 5. The signal value of the negative control group was set as Bottom, and the signal value of the positive control group was set as Top. The compound concentration value (logarithm) was the X-axis, and the luminescence reading at the corresponding concentration was the Y-axis, with HillSlope as the slope factor. A four-parameter logistic model (4PL logistic model) was used for fitting, and the calculation method was as follows:Y = Bottom + (Top - Bottom) / (1 + 10^((Log IC50 - X) × HillSlope))
After fitting, the IC50 value of the compound was calculated, and the proliferation inhibitory activity of the compound was compared based on the IC50 value.

By UniProt entry, the sequences of proteins in these tests, tags left out.
UniProt O75530, whole entry: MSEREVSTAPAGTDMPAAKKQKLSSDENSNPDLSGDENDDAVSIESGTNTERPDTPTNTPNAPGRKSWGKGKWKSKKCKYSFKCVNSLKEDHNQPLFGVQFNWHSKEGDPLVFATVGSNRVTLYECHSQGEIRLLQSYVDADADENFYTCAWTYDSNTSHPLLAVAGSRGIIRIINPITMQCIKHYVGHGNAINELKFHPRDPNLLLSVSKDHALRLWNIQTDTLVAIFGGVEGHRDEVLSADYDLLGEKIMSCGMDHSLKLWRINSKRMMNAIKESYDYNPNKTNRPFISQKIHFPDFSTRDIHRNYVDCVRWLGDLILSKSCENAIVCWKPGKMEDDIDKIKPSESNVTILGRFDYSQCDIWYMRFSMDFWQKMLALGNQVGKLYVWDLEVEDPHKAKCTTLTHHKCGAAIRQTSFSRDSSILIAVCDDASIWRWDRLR

[2] = biological target: EED protein (Homo sapiens, UniProt O75530); assay: EED protein degradation in Karpas-422 cells, In-cell western (ICW); conditions: 18 hours incubation
Description: In this experiment, In-cell western (ICW) method was used to quantitatively analyze the EED protein expression level in Karpas-422 cells to detect the degradation activity of the compounds on the target protein. The specific steps were as follows: • 1. Karpas-422 cells were purchased from Nanjing Cobioer (Catalog No. CBP60629), subcultured and maintained in logarithmic growth state using RPMI-1640 complete medium (containing 10% v/v fetal bovine serum) according to the supplier's recommended conditions. […] One day before cell seeding, a 384-well plate was coated with 30 µL of coating buffer (phosphate buffered saline containing 30 µg/mL poly-D-lysine) at room temperature for 2 hours. The coating solution was then discarded, and the plate was washed once with 90 µL of phosphate buffered saline, which was then discarded. The plate was allowed to air dry naturally in a clean bench, wrapped around the edges with Parafilm to prevent moisture, and stored in a 4°C refrigerator until use. • 3. Before cell seeding, cells were collected in a centrifuge tube, centrifuged at 250 rcf for 3 minutes, and the culture medium was discarded. The cells were resuspended in fresh complete medium, and 20 µL of the cell suspension was taken to calculate the cell concentration using a Countstar cell counter. After adjusting the density, cells were seeded into the prepared coated plate at 15,000 cells/45 µL and pre-incubated in a 37°C, 5% CO2 incubator for 4 hours. • 4. The negative and positive control groups were treated with 5 µL of control solution (serum-free medium containing 1% v/v DMSO). Compound gradient dilutions were prepared using the control solution, and 5 µL of the dilutions were added to the corresponding culture wells. The final concentration of DMSO in the test was 0.1% v/v. Subsequently, the plate was incubated in a 37°C, 5% CO2 incubator for 18 hours. • 5. The culture plate was removed, and cells were fixed by directly adding 10 µL of fixative solution (phosphate buffered saline containing 3% v/v glutaraldehyde) to the cells and incubating at room temperature for 30 minutes. The liquid was discarded. Subsequently, cells were treated with 30 µL of permeabilization staining solution (phosphate buffered saline containing 0.1% v/v Triton X-100 and 20 µg/mL Hoechst 33342) at room temperature for 30 minutes. The permeabilization solution was discarded, and the fluorescence value (excitation at 360 nm, emission at 460 nm) was read on a microplate reader. • 6. 50 µL of repair solution (50 mM citric acid buffer) was added to all wells, and the plate was incubated at 70°C for 2 hours on a constant temperature incubation shaker. The microplate was then removed, equilibrated to room temperature, and the liquid was discarded. • 7. A sufficient amount of antibody dilution buffer (Tris Buffered Saline-Tween solution containing 1% w/v bovine serum albumin) was prepared and stored in a 4°C refrigerator until use. • 8. Primary antibody dilution (EED antibody diluted 1:1000 with antibody dilution buffer) was prepared. 30 µL of antibody dilution buffer without antibody was added to the negative control group. 30 µL of the primary antibody dilution was added to the cells in the other groups, and the plate was incubated overnight at 4°C. • 9. The primary antibody dilution was discarded. The plate was washed 3 times with 90 µL of Tris Buffered Saline-Tween solution, and the wash solution was discarded. Secondary antibody dilution (HRP-linked antibody diluted 1:500 with antibody dilution buffer) was prepared, and 30 µL was added to the cells. The plate was incubated at room temperature for 2 hours. • 10. The secondary antibody dilution was discarded. The plate was washed 3 times with 90 µL of Tris Buffered Saline-Tween solution, and the wash solution was discarded. 30 µL of TMB substrate solution was added, and the plate was incubated at room temperature in the dark for 15 minutes. Then, 30 µL of stop solution (2 M sulfuric acid) was added to terminate the reaction. […]

SMILES	IC50 [1] [nM]	Dmax [2] [%]
Cc1cc(CN2CCC(N3CCN(c4ccc5c(c4)n(C)c(=O)n5C4CCC(=O)NC4=O)CC3)C(F)(F)C2)ccc1-c1cnc(NCc2c(F)ccc3c2CCO3)n2cnc(Cl)c12 (centres unmarked)	70	43
Cc1nc(N2CCC(CN3CCN(c4ccc5c(C6CCC(=O)NC6=O)nn(C)c5c4)CC3)CC2)ccc1-c1cnc(NCc2c(F)ccc3c2CCO3)n2cnc(Cl)c12 (centres unmarked)	20	56
Cn1c(=O)n(C2CCC(=O)NC2=O)c2ccc(N3CCC(CN4CCC(c5cccc(-c6cnc(NCc7c(F)ccc8c7CCO8)n7cnc(Cl)c67)c5)CC4)CC3)cc21 (centres unmarked)	0.7	57
Cc1nc(C2CCN(CC3CCN(c4cc5c(cc4F)c(C4CCC(=O)NC4=O)nn5C)CC3)CC2)ccc1-c1cnc(NCc2c(F)ccc3c2CCO3)n2cnc(Cl)c12 (centres unmarked)	2	56
Cc1nc(N2CCN(CC3CCN(c4ccc5c(C6CCC(=O)NC6=O)nn(C)c5c4)CC3)CC2)ccc1-c1cnc(NCc2c(F)ccc3c2CCO3)n2cnc(Cl)c12 (centres unmarked)	13	62
Cn1nc(C2CCC(=O)NC2=O)c2ccc(N3CCC(CN4CCC(c5ccc(-c6cnc(NCc7c(F)ccc8c7CCO8)n7cnc(C#N)c67)cc5)CC4)CC3)cc21 (centres unmarked)	1	65
Cc1nc(C2CCN(CC3CCN(c4ccc5c(c4)n(C)c(=O)n5C4CCC(=O)NC4=O)CC3)CC2)ccc1-c1cnc(NCc2c(F)ccc3c2CCO3)n2cc(C#N)nc12 (centres unmarked)	0.5	70
Cc1cc(CN2CCC(N3CCN(c4ccc(NC5CCC(=O)NC5=O)cc4F)CC3)C(F)(F)C2)ccc1-c1cnc(NCc2c(F)ccc3c2CCO3)n2cc(C#N)nc12 (centres unmarked)	109	44
Cc1ncsc1-c1ccc([C@H](C)NC(=O)[C@@H]2C[C@@H](O)CN2C(=O)[C@@H](NC(=O)CCCNC(=O)c2ccc(-c3cnc(NCc4c(F)ccc5c4CCO5)n4cnc(Br)c34)cn2)C(C)(C)C)cc1	10	73
Cc1ncsc1-c1ccc([C@H](C)NC(=O)[C@@H]2C[C@@H](O)CN2C(=O)[C@@H](NC(=O)CCCNC(=O)c2ccc(-c3cnc(NCc4c(F)ccc5c4CCO5)n4cnc(C(F)(F)F)c34)cn2)C(C)(C)C)cc1	53	81
Cn1nc(C2CCC(=O)NC2=O)c2ccc(N3CCC(CN4CCC(c5ccc(-c6cnc(NCc7c(F)ccc8c7CCO8)n7cnc(C(F)(F)F)c67)cc5)CC4)CC3)cc21 (centres unmarked)	5	67
N#Cc1cn2c(NCc3c(F)ccc4c3CCO4)ncc(-c3ccc(C4CCN(CC5CCN(c6ccc7c(c6)C(=O)N(C6CCC(=O)NC6=O)C7=O)CC5)CC4)cc3)c2n1 (centres unmarked)	9	59
O=C1CCC(N2C(=O)c3ccc(N4CCC(CN5CCC(Nc6ccc(-c7cnc(NCc8c(F)ccc9c8CCO9)n8cnc(Cl)c78)cc6)CC5)CC4)cc3C2=O)C(=O)N1 (centres unmarked)	65	36
Cn1nc(C2CCC(=O)NC2=O)c2ccc(N3CCC(CN4CCC(n5cc(-c6cnc(NCc7c(F)ccc8c7CCO8)n7cnc(Cl)c67)c(C(F)(F)F)n5)CC4)CC3)cc21 (centres unmarked)	25	54
Cn1nc(C2CCC(=O)NC2=O)c2ccc(N3CCC(CN4CCC(c5ccc(-c6cnc(NCc7c(F)ccc8c7CCO8)n7cnc(Cl)c67)c(C(F)(F)F)n5)CC4)CC3)cc21 (centres unmarked)	5	58
Cn1nc(C2CCC(=O)NC2=O)c2ccc(N3CCC(CN4CCC(NC(=O)c5ccc(-c6cnc(NCc7c(F)ccc8c7CCO8)n7cnc(Cl)c67)cc5)CC4)CC3)cc21 (centres unmarked)	0.4	65
Cc1ncsc1-c1ccc([C@H](C)NC(=O)[C@@H]2C[C@@H](O)CN2C(=O)[C@@H](NC(=O)CNC2CN(c3ccc(-c4cnc(NCc5c(F)ccc6c5CCO6)n5cnnc45)cn3)C2)C(C)(C)C)cc1	211	73
Cn1nc(C2CCC(=O)NC2=O)c2cc(F)c(N3CCC(CN4CCC(c5ccc(-c6cnc(NCc7c(F)ccc8c7CCO8)n7cnc(F)c67)cc5)CC4)CC3)cc21 (centres unmarked)	4	64
Cc1cc(-c2cnc(NCc3c(F)ccc4c3CCO4)n3cnc(Cl)c23)ccc1C1CCN(CC2CCN(c3ccc4c(C5CCC(=O)NC5=O)nn(C)c4c3)CC2)CC1 (centres unmarked)	0.76	62
Cc1cc(CN2CCC(N3CCN(c4ccc5c(C6CCC(=O)NC6=O)nn(C)c5c4)CC3)C(F)(F)C2)ccc1-c1cnc(NCc2c(F)ccc3c2CCO3)n2cnc(Cl)c12 (centres unmarked)	7.29	45
Cn1nc(C2CCC(=O)NC2=O)c2ccc(N3CCC(CN4CCC(NC(=O)c5ccc(-c6cnc(NCc7c(F)ccc8c7CCO8)n7cnc(Cl)c67)cn5)CC4)C(F)(F)C3)cc21 (centres unmarked)	7	72
Cn1nc(C2CCC(=O)NC2=O)c2ccc(N3CCC(CN4CCC(c5ccc(-c6cnc(NCc7c(F)ccc8c7CCO8)c7nc(C#N)cn67)cc5)CC4)CC3)cc21 (centres unmarked)	7	48
Cn1nc(C2CCC(=O)NC2=O)c2ccc(N3CCC(CN4CCC(NC(=O)c5ccc(-c6cnc(NCc7c(F)ccc8c7CCO8)n7cnc(Cl)c67)c(C(F)(F)F)n5)CC4)CC3)cc21 (centres unmarked)	1.5	78
Cc1ncsc1-c1ccc([C@H](C)NC(=O)[C@@H]2C[C@@H](O)CN2C(=O)[C@@H](NC(=O)CCCNC(=O)c2ccc(-c3cnc(NCc4c(F)ccc5c4CCO5)n4cnc(C#N)c34)cn2)C(C)(C)C)cc1	17	77
Cc1ncsc1-c1ccc([C@H](C)NC(=O)[C@@H]2C[C@@H](O)CN2C(=O)[C@@H](NC(=O)CCCNC(=O)c2ccc(-c3cnc(NCc4c(F)ccc5c4CCO5)n4cnc(F)c34)cn2)C(C)(C)C)cc1	43	76
Cn1c(=O)n(C2CCC(=O)NC2=O)c2ccc(N3CCC(CN4CCC(c5ccc(-c6cnc(NCc7c(F)ccc8c7CCO8)n7cnc(S(C)(=O)=O)c67)c(C(F)(F)F)n5)CC4)CC3)cc21 (centres unmarked)	3.8	52
Cn1nc(C2CCC(=O)NC2=O)c2ccc(N3CCC(CN4CCC(n5cc(-c6cnc(NCc7c(F)ccc8c7CCO8)n7cnc(Cl)c67)cn5)CC4)C(F)(F)C3)cc21 (centres unmarked)	7	71
Cc1ncsc1-c1ccc(CNC(=O)[C@@H]2C[C@@H](O)CN2C(=O)[C@@H](NC(=O)C2CN(c3ccc(-c4cnc(NCc5c(F)ccc6c5CCO6)n5cnnc45)cc3)C2)C(C)C)cc1	240	31
